Test results taken from article PMC11427100.
These are yes or no findings as the source states them, for the method shown. In cells and extracts the contact can be indirect. These calls come from enrichment with a bait or labelling near it, and not all partners need be listed.

Sequences of proteins named here, by UniProt entry; tags and fusion partners are left off.
UniProt Q6R891: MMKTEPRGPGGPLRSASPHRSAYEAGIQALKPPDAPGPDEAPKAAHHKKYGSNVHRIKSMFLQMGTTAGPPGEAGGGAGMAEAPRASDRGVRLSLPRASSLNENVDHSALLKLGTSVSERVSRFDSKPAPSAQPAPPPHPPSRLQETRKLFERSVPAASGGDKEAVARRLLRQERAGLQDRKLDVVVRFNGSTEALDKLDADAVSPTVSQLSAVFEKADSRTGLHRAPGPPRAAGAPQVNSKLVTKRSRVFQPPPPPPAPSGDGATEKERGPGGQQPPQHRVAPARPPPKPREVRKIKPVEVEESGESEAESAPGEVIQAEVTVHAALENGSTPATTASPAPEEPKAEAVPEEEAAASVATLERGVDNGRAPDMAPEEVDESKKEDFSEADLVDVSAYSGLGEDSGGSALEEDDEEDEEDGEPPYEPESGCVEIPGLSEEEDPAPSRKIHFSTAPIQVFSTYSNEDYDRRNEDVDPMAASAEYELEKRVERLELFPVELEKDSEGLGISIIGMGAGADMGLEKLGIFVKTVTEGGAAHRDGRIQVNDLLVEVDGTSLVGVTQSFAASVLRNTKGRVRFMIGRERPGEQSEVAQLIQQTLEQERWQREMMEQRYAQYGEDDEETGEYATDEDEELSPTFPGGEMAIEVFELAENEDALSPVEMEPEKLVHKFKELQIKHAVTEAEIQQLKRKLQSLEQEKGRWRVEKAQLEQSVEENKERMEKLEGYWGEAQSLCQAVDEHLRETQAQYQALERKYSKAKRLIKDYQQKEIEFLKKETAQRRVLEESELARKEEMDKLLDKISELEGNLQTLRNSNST

B1: Slc25a5 (protein, UniProt P51881 1-298)
chain: MTDAAVSFAKDFLAGGVAAAISKTAVAPIERVKLLLQVQHASKQITADKQYKGIIDCVVRIPKEQGVLSFWRGNLANVIRYFPTQALNFAFKDKYKQIFLGGVDKRTQFWRYFAGNLASGGAAGATSLCFVYPLDFARTRLAADVGKAGAEREFKGLGDCLVKIYKSDGIKGLYQGFNVSVQGIIIYRAAYFGIYDTAKGMLPDPKNTHIFISWMIAQSVTAVAGLTSYPFDTVRRRMMMQSGRKGTDIMYTGTLDCWRKIARDEGSKAFFKGAWSNVLRGMGGAFVLVLYDEIKKYT
B2: Amy2 (protein, UniProt P00688 16-508)
chain: QYDPHTSDGRTAIVHLFEWRWVDIAKECERYLAPKGFGGVQVSPPNENVVVHNPSRPWWERYQPISYKICTRSGNEDEFRDMVTRCNNVGVRIYVDAVINHMCGAGNPAGTSSTCGSYLNPNNREFPAVPYSAWDFNDNKCNGEIDNYNDAYQVRNCRLTGLLDLALEKDYVRTKVADYMNHLIDIGVAGFRLDAAKHMWPGDIKAVLDKLHNLNTKWFSQGSRPFIFQEVIDLGGEAIKGSEYFGNGRVTEFKYGAKLGTVIRKWNGEKMSYLKNWGEGWGLVPSDRALVFVDNHDNQRGHGAGGSSILTFWDARMYKMAVGFMLAHPYGFTRVMSSYRWNRNFQNGKDQNDWIGPPNNNGVTKEVTINADTTCGNDWVCEHRWRQIRNMVAFRNVVNGQPFSNWWDNNSNQVAFSRGNRGFIVFNNDDWALSATLQTGLPAGTYCDVISGDKVDGNCTGLRVNVGSDGKAHFSISNSAEDPFIAIHADSKL
B3: Kxd1 (protein, UniProt Q80XH1 1-177)
chain: MDTPDSASRVFCGRFLSMVNTDDVNAIILAQKNMLDRFEKTNEMLLNFNNLSSVRLQQMSERFMHHTRTLVDMKRDLDSIFRRIRTLKGKLARQHPEAFSHIPEGSFLEDEDEDPIPPSITTTIATSEQSTGSCDTSPDTVSPSLSPGFEDLSHIQPGSPAINGHRQTDDEEETHEE
B4: Lyz1 (protein, UniProt P17897 19-148)
chain: KVYNRCELARILKRNGMDGYRGVKLADWVCLAQHESNYNTRATNYNRGDRSTDYGIFQINSRYWCNDGKTPRSKNACGINCSALLQDDITAAIQCAKRVVRDPQGIRAWVAWRTQCQNRDLSQYIRNCGV
B5: Myosin light polypeptide 6 (protein, UniProt Q60605 1-151)
chain: MCDFTEDQTAEFKEAFQLFDRTGDGKILYSQCGDVMRALGQNPTNAEVLKVLGNPKSDEMNVKVLDFEHFLPMLQTVAKNKDQGTYEDYVEGLRVFDKEGNGTVMGAEIRHVLVTLGEKMTEEEVEMLVAGHEDSNGCINYEAFVRHILSG
B6: Unconventional myosin-Id (protein, UniProt Q5SYD0 1-1006)
chain: MAEQESLEFGKADFVLMDTVSMPEFMANLRLRFEKGRIYTFIGEVVVSVNPYKVLNIYGRDTVEQYKGRELYERPPHLFAIADAAYKAMKRRSKDTCIMISGESGAGKTEASKYIMQYIAAITNPSQRAEIERVKNMLLKSNCVLEAFGNAKTNRNDNSSRFGKYMDINFDFKGDPIGGHINNYLLEKSRVIVQQPGERSFHSFYQLLQGGSEQMLHSLHLQKSLSSYNYIRVGAQLKSSINDAAEFKVVADAMKVIGFKPEEIQTVYKILAVILHLGNLKFIVDGDTPLIENGKVVSVIAELLSTKADMVEKALLYRTVATGRDIIDKQHTEQEASYGRDAFAKAIYERLFCWIVTRINDIIEVKNYDTTIHGKNTVIGVLDIYGFEIFDNNSFEQFCINYCNEKLQQLFIQLVLKQEQEEYQREGIPWKHIDYFNNQIIVDLVEQQHKGIIAILDDACMNVGKVTDGMFLEALNSKLGKHGHFSSRKTCASDKILEFDRDFRIRHYAGDVVYSAIGFIDKNKDTLFQDFKRLMYNSSNPVLKNMWPEGKLSITEVTKRPLTAATLFKNSMIALVDNLASKEPYYVRCIKPNDKKSPQIFDDERCRHQVEYLGLLENVRVRRAGFAFRQTYEKFLHRYKMISEFTWPNHDLPSDKEAVKKLIERCGFQDDVAYGKSKIFIRTPRTLFTLEELRAQMLVRVVLFLQKVWRGTLARMRYKRTKAALTIIRYYRRYKVKSYIHEVARRFHGVKNMRDYGKHVKWPTPPKVLRRFEEALQSIFNRWRASQLIKTIPASDLPQVRAKVAAMEMLKGQRADLGLQRAWEGNYLASKPDTPQTSGTFVPVANELKRKDKYMNVLFSCHVRKVNRFSKVEDRAIFVTDRHLYKMDPTKQYKVMKTIPLYNLTGLSVSNGKDQLVVFHTKDNKDLIVCLFSKQPTHESRIGELVGVLVNHFKSEKRHLQVNVTNPVQCSLHGKKCTVSVETRLNQPQPDFTKNRSGFILSVPGN
B7: Protein flightless-1 homolog (protein, UniProt Q9JJ28 1-1271)
chain: MEATGVLPFVRGVDLSGNDFKGGYFPENVKAMTSLRWLKLNRTGLCYLPEELAALQKLEHLSVSHNHLTTLHGELSSLPSLRAIVARANSLKNSGVPDDIFKLDDLSVLDLSHNQLTECPRELENAKNMLVLNLSHNGIDSIPNQLFINLTDLLYLDLSENRLESLPPQMRRLVHLQTLVLNGNPLLHAQLRQLPAMMALQTLHLRNTQRTQSNLPTSLEGLSNLSDVDLSCNDLTRVPECLYTLPSLRRLNLSSNQIAELSLCIDQWVHLETLNLSRNQLTSLPSAICKLTKLKKLYLNSNKLDFDGLPSGIGKLTSLEEFMAANNNLELIPESLCRCPKLKKLVLNKNRLVTLPEAIHFLTEIQVLDVRENPSLVMPPKPADRTAEWYNIDFSLQNQLRLAGASPATVAAAAAVGSGSKDPLARKMRLRRRKDSAQDVQAKQVLKGMSDVAQEKNKNQEESIDARAPGGKVRRWDQGLEKPRLDYSEFFTEDVGQLPGLTIWQIENFVPVLVEEAFHGKFYEADCYIVLKTFLDDSGSLNWEIYYWIGGEATLDKKACSAIHAVNLRNYLGAECRTVREEMGDESEEFLQVFDNDISYIEGGTASGFYTVEDTHYVTRMYRVYGKKNIKLEPVPLKGSSLDPRFVFLLDQGLDIYVWRGAQATLSNTTKARLFAEKINKNERKGKAEITLLVQGQEPPGFWDVLGGEPSEIKNHVPDDFWPPQPKLYKVGLGLGYLELPQINYKLSVEHKKRPKVELMPGMRLLQSLLDTRCVYILDCWSDVFIWLGRKSPRLVRAAALKLGQELCGMLHRPRHTVVSRSLEGTEAQVFKAKFKNWDDVLTVDYTRNAEAVLQGQGLSGKVKRDTEKTDQMKADLTALFLPRQPPMPLAEAEQLMEEWNEDLDGMEGFVLEGRKFTRLPEEEFGHFYTQDCYVFLCRYWVPVEYEEEEKTEDKEGKASAEAREGEEAAAEAEEKQPEEDFQCIVYFWQGREASNMGWLTFTFSLQKKFESLFPGKLEVVRMTQQQENPKFLSHFKRKFIIHRGKRKVTQGTLQPTLYQIRTNGSALCTRCIQINTDSSLLNSEFCFILKVPFESEDNQGIVYAWVGRASDPDEAKLAEDILNTMFDASYSKQVINEGEEPENFFWVGIGAQKPYDDDAEYMKHTRLFRCSNEKGYFAVTEKCSDFCQDDLADDDIMLLDNGQEVYMWVGTQTSQVEIKLSLKACQVYIQHTRSKEHERPRRLRLVRKGNEQRAFTRCFHAWSTFRQAPA
B8: Tropomodulin-1 (protein, UniProt P49813 1-359)
chain: MSYRRELEKYRDLDEDEILGALTEEELRTLENELDELDPDNALLPAGLRQKDQTTKAPTGPFKREELLDHLEKQAKEFKDREDLVPYTGEKRGKVWVPKQKPMDPVLESVTLEPELEEALANASDAELCDIAAILGMHTLMSNQQYYQALGSSSIVNKEGLNSVIKPTQYKPVPDEEPNSTDVEETLERIKNNDPELEEVNLNNIRNIPIPTLKAYAEALKENSYVKKFSIVGTRSNDPVAFALAEMLKVNKVLKTLNVESNFISGAGILRLVEALPHNTSLVELKIDNQSQPLGNKVEMEIVNMLEKNTTLLKFGYHFTQQGPRLRASNAMMSNNDLVRKRRLADLTGPIIPKCRSGV
B9: Calponin-1 (protein, UniProt Q08091 1-297)
chain: MSSAHFNRGPAYGLSAEVKNKLAQKYDHQREQELREWIEGVTGRRIGNNFMDGLKDGIILCEFINKLQPGSVKKVNESTQNWHQLENIGNFIKAITKYGVKPHDIFEANDLFENTNHTQVQSTLLALASMAKTKGNKVNVGVKYAEKQERRFEPEKLREGRNIIGLQMGTNKFASQQGMTAYGTRRHLYDPKLGTDQPLDQATISLQMGTNKGASQAGMTAPGTKRQIFEPGLGMEHCDTLNVSLQMGSNKGASQRGMTVYGLPRQVYDPKYCLNPEYPELSEPTHNHHPHNYYNSA

Biological target: Spinophilin (mouse (endogenous in pancreas and isolated islets)) (UniProt Q6R891)
Experiment: affinity purification with mass spectrometry; spinophilin immunoprecipitated from islets isolated from three WT and one Spino^-/- mice; label-free, spectral counting

binding	Binder
binds	B1
binds	B2
binds	B3
binds	B4

Biological target: Spinophilin (mouse (endogenous in pancreas and isolated islets)) (UniProt Q6R891)
Experiment: affinity purification with mass spectrometry; spinophilin immunoprecipitated from pancreas of WT chow-fed, WT high-fat diet-fed and Spino^-/- high-fat diet-fed male mice; on-bead digestion, TMT10plex; hits filtered by WT/KO log2 fold-enrichment of 0.5 and two unique peptides, listed hits increased in HFF vs. lean

binding	Binder
binds	B5
binds	B6
binds	B7
binds	B8
binds	B9
